Results reported in patent US20250276996A1, “CATIONICALLY-ENFRAMED HIGH DENSITY AROMATIC PEPTIDES” (Research Foundation of the City University of New York, priority 2022, published 2025).

Test: TMRM labeling of biotin-HDAP2-CL vesicles
Conditions: 100 μM CCCP or 1 mM DNP

N#CC(C#N)=NNc1cccc(Cl)c1 [CCCP, carbonyl cyanide m-chlorophenylhydrazone, reference compound]
TMRM staining of CL-biotin-HDAP2 vesicles with proton ionophore: significant decreases in TMRM staining
